Assay results reported in the supplement of paper PMC12823440, “Inhibitors supercharge kinase turnover through native proteolytic circuits” (Nature, 2025).
Where a name gives a salt, the structure may show the parent alone. The list shows a part of the results. Hit calls seldom repeat between salt and free forms of one compound.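 In K562 cells expressing nanoluciferase-fused kinases, luminescence was recorded at 4 h intervals between 2 and 18 h, normalized as percent of control with DMSO at 100% and a positive control at 0%. A significant (2 sigma) signal drop marks a time point as decreased. The authors' rule for a hit is not shown and takes in more than the number of time points.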

Sequences of proteins named here, by UniProt entry; tags and fusion partners are left off. A change or cut given only in a name is not applied to a line headed by its entry.
UniProt P50613: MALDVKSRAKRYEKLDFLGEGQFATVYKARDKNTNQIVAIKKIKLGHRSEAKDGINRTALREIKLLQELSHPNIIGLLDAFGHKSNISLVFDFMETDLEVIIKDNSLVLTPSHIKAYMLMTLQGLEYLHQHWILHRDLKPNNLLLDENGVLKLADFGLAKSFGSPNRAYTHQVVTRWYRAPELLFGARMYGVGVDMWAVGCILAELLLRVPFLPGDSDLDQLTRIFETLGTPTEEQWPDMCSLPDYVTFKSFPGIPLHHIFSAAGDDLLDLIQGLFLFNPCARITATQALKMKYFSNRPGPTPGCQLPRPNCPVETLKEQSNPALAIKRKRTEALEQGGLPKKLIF
UniProt P50750, whole entry: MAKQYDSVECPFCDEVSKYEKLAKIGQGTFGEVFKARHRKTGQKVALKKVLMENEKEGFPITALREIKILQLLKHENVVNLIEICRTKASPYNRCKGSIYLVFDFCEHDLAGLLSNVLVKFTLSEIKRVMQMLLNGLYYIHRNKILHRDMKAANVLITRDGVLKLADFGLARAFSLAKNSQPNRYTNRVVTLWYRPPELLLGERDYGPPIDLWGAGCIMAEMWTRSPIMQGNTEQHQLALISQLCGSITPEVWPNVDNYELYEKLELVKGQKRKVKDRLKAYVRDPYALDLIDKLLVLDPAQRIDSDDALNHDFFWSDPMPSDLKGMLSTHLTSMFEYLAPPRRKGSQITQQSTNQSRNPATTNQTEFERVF
UniProt O96017, whole entry: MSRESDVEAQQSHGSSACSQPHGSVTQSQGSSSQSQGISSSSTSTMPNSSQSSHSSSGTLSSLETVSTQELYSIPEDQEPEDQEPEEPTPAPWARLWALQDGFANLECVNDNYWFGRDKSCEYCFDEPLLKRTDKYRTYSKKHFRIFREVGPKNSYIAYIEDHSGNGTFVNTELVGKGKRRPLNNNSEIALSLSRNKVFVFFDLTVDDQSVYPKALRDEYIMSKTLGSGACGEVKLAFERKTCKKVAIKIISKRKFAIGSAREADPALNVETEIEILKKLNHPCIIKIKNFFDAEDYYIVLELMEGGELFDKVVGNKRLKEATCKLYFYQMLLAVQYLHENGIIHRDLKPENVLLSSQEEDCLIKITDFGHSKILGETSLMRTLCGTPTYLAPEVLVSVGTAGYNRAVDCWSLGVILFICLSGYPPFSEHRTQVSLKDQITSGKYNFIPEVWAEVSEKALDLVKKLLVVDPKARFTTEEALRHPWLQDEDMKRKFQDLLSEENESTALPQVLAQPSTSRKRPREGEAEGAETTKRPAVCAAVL
UniProt P07333, whole entry: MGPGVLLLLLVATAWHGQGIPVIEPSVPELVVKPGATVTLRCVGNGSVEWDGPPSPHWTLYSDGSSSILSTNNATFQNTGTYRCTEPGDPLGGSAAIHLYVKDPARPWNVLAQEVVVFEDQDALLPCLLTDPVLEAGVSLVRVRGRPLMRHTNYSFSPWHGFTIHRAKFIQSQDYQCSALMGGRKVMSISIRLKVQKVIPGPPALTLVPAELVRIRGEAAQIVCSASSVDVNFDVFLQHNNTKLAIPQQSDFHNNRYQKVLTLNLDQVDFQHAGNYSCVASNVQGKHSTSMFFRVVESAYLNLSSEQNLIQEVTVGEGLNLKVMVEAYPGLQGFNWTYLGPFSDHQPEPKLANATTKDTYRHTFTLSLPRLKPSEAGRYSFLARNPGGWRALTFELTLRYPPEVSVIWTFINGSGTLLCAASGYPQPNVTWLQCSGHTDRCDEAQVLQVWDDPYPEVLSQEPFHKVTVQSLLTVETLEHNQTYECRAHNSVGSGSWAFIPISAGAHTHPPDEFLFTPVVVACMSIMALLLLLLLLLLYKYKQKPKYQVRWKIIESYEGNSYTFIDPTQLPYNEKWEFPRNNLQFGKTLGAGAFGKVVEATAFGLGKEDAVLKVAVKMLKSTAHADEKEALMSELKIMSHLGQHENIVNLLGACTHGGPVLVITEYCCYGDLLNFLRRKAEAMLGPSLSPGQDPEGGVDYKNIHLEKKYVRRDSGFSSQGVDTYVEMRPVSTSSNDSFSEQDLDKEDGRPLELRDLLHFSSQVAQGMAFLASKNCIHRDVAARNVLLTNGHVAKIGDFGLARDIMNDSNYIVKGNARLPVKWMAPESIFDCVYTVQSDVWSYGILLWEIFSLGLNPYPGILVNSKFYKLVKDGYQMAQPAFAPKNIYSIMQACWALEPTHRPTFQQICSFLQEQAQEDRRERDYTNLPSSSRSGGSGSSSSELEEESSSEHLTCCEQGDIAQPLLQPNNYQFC
UniProt P41240: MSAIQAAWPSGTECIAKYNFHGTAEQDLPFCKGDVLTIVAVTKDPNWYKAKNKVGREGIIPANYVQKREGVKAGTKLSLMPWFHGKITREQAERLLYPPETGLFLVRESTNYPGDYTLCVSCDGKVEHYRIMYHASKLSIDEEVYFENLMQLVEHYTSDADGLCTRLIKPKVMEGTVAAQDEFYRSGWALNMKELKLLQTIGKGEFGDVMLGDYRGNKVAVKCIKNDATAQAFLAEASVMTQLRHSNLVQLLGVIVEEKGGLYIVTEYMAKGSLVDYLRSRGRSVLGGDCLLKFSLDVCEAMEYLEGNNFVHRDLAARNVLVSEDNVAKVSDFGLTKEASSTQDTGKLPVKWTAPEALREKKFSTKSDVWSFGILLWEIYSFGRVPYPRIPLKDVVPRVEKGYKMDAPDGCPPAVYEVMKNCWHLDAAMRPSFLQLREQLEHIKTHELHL
UniProt P48729: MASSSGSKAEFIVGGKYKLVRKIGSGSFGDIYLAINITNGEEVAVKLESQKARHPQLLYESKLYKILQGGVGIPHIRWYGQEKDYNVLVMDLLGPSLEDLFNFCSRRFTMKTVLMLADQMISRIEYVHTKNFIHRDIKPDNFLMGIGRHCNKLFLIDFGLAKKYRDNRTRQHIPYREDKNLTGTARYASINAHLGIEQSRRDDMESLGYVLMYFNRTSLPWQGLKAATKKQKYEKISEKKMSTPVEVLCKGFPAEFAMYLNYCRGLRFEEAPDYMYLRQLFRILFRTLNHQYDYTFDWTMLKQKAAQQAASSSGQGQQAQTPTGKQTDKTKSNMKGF
UniProt P48730: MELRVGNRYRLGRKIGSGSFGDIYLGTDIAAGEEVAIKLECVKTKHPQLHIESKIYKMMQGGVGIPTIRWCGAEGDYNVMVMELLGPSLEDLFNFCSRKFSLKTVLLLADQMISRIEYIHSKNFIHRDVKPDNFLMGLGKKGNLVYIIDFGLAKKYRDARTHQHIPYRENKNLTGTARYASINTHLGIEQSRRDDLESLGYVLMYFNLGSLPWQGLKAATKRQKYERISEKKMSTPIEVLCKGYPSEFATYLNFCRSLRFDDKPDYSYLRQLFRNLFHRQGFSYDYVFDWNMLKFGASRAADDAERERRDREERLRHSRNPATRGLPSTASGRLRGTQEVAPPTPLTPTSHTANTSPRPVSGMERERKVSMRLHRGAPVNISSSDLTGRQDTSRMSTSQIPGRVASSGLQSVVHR
UniProt Q08345: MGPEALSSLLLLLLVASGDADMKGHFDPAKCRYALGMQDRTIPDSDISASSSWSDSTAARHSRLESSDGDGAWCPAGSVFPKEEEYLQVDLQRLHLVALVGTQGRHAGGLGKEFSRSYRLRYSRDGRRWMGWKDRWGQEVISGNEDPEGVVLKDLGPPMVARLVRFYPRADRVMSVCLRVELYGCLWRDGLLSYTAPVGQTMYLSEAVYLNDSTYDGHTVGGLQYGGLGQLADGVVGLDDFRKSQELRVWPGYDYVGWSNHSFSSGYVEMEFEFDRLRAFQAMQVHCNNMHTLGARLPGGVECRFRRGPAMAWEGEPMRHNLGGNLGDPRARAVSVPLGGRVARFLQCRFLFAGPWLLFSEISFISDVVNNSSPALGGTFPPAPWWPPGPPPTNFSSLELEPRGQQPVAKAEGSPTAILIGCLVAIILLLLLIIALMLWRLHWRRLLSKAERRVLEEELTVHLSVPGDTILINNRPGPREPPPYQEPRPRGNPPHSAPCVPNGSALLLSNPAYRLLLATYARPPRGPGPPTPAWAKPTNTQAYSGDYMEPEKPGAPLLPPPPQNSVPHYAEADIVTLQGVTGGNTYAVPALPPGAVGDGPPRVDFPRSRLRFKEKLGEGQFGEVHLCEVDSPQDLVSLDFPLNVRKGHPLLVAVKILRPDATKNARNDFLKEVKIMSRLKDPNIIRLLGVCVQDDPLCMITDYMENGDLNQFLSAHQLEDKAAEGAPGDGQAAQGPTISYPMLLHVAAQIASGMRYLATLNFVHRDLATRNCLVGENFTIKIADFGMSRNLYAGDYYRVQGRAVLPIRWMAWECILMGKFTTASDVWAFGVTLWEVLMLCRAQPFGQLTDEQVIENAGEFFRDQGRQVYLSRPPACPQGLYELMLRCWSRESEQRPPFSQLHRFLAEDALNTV
UniProt Q9Y463, whole entry, looked up: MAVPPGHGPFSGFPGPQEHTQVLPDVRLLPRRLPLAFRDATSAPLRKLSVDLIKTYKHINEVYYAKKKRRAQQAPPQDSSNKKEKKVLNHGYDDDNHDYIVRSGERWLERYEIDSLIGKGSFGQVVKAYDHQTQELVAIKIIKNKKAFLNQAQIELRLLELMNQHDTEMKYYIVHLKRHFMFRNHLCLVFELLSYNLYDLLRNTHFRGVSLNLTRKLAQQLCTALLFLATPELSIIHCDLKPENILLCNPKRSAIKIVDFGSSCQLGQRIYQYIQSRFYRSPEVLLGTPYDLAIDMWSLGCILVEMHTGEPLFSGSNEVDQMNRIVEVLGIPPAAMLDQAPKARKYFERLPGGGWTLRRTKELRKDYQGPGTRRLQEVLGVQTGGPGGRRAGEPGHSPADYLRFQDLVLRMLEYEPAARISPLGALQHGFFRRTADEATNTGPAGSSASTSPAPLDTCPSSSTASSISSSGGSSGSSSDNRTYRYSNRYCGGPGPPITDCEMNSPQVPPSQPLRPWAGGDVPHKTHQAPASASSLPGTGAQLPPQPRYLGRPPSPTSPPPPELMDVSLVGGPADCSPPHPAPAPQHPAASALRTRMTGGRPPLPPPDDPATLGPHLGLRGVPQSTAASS
UniProt Q92630: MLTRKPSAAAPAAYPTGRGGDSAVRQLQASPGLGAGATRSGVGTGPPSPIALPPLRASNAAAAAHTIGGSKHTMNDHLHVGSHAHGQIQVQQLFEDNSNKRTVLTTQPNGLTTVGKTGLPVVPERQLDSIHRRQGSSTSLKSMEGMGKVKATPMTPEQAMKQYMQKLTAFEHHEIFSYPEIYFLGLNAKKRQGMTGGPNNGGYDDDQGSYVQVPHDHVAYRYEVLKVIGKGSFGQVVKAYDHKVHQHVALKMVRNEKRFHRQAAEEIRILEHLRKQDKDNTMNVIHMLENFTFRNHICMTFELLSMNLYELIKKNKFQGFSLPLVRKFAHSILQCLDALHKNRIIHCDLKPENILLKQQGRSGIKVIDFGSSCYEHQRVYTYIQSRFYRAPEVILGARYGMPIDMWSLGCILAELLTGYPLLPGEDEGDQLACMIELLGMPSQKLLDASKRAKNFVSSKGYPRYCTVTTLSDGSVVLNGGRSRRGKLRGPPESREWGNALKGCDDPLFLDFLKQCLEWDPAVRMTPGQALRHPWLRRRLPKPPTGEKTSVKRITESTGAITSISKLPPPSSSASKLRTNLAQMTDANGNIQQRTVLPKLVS

Legend:
Assay in all cases: kinase-Nluc reporter destabilization hit call (1 = scored as downregulated) (binary); higher = compound decreases kinase abundance
Settings in all cases: K562, 2-18 h
CDK7 = CDK7 (UniProt P50613)
CDK9 = CDK9 (UniProt P50750)
CHEK2 = CHEK2 (UniProt O96017)
CSF1R = CSF1R (UniProt P07333)
CSK = CSK (UniProt P41240)
CSNK1A1 = CSNK1A1 (UniProt P48729)
CSNK1D = CSNK1D (UniProt P48730)
DDR1 = DDR1 (UniProt Q08345)
DYRK1B = DYRK1B (UniProt Q9Y463)
DYRK2 = DYRK2 (UniProt Q92630)

Compound | kinase-Nluc reporter destabilization hit call (CDK7; 2.5 µM) | kinase-Nluc reporter destabilization hit call (CDK9; 2.5 µM) | kinase-Nluc reporter destabilization hit call (CHEK2; 2.5 µM) | kinase-Nluc reporter destabilization hit call (CSF1R; 2.5 µM) | kinase-Nluc reporter destabilization hit call (CSK; 2.5 µM) | kinase-Nluc reporter destabilization hit call (CSNK1A1; 2.5 µM) | kinase-Nluc reporter destabilization hit call (CSNK1D; 2.5 µM) | kinase-Nluc reporter destabilization hit call (DDR1; 2.5 µM) | kinase-Nluc reporter destabilization hit call (DYRK1B; 2.5 µM) | kinase-Nluc reporter destabilization hit call (DYRK2; 2.5 µM) | kinase-Nluc reporter destabilization hit call (CDK7; 10 µM) | kinase-Nluc reporter destabilization hit call (CDK9; 10 µM) | kinase-Nluc reporter destabilization hit call (CHEK2; 10 µM) | kinase-Nluc reporter destabilization hit call (CSF1R; 10 µM) | kinase-Nluc reporter destabilization hit call (CSK; 10 µM) | kinase-Nluc reporter destabilization hit call (CSNK1A1; 10 µM) | kinase-Nluc reporter destabilization hit call (CSNK1D; 10 µM) | kinase-Nluc reporter destabilization hit call (DDR1; 10 µM) | kinase-Nluc reporter destabilization hit call (DYRK1B; 10 µM) | kinase-Nluc reporter destabilization hit call (DYRK2; 10 µM)
C[C@H](Nc1cc(-c2cnn(C)c2)cc(Nc2cnccn2)n1)c1ccc(F)cc1 [Ilginatinib] | inactive: 0 | inactive: 0 | inactive: 0 | inactive: 0 | inactive: 0 | inactive: 0 | inactive: 0 | inactive: 0 | inactive: 0 | inactive: 0 | – | – | – | – | – | – | – | – | – | –
Nc1cncc(-c2cn3ccnc3c(Nc3ccc(N4CCN(C5COC5)CC4)cc3)n2)n1 [Lanraplenib] | – | – | – | – | – | – | – | – | – | – | inactive: 0 | inactive: 0 | inactive: 0 | inactive: 0 | inactive: 0 | inactive: 0 | inactive: 0 | inactive: 0 | inactive: 0 | inactive: 0
Cc1cc(Nc2ncc(Cl)c(Nc3ccccc3S(=O)(=O)C(C)C)n2)c(OC(C)C)cc1C1CCNCC1 [Ceritinib dihydrochloride] | inactive: 0 | inactive: 0 | inactive: 0 | inactive: 0 | inactive: 0 | inactive: 0 | inactive: 0 | inactive: 0 | inactive: 0 | inactive: 0 | – | – | – | – | – | – | – | – | – | –
Oc1cccc(-c2nc(N3CCOCC3)c3oc4ncccc4c3n2)c1 | – | – | – | – | – | – | – | – | – | – | inactive: 0 | inactive: 0 | inactive: 0 | inactive: 0 | inactive: 0 | inactive: 0 | inactive: 0 | inactive: 0 | inactive: 0 | inactive: 0
Cc1cccc(-c2[nH]c(CNc3ccccc3F)nc2-c2ccc3ncnn3c2)n1 [Vactosertib] | inactive: 0 | inactive: 0 | inactive: 0 | inactive: 0 | inactive: 0 | inactive: 0 | inactive: 0 | inactive: 0 | inactive: 0 | inactive: 0 | – | – | – | – | – | – | – | – | – | –
Cn1cc(-c2cnc3ccc4ccc(CS(=O)(=O)NCc5ccccn5)cc4c(=O)c3c2)cn1 | – | – | – | – | – | – | – | – | – | – | inactive: 0 | inactive: 0 | inactive: 0 | inactive: 0 | inactive: 0 | inactive: 0 | inactive: 0 | inactive: 0 | inactive: 0 | inactive: 0
N#CCNC(=O)c1ccc(-c2ccnc(Nc3ccc(N4CCOCC4)cc3)n2)cc1 [Momelotinib] | – | – | – | – | – | – | – | – | – | – | active: 1 | inactive: 0 | inactive: 0 | inactive: 0 | inactive: 0 | inactive: 0 | inactive: 0 | inactive: 0 | inactive: 0 | inactive: 0
CN1CCCN(C(=O)c2cccc(-c3ccc(/C=C4/C(=O)Nc5ccc(Cl)cc54)o3)c2)CC1 [CX-6258 (hydrochloride)] | inactive: 0 | inactive: 0 | inactive: 0 | inactive: 0 | inactive: 0 | inactive: 0 | inactive: 0 | inactive: 0 | inactive: 0 | inactive: 0 | – | – | – | – | – | – | – | – | – | –
COc1cc(/C=C/C(=O)O)ccc1O [Ferulic acid (sodium)] | – | – | – | – | – | – | – | – | – | – | inactive: 0 | inactive: 0 | inactive: 0 | inactive: 0 | inactive: 0 | inactive: 0 | inactive: 0 | inactive: 0 | inactive: 0 | inactive: 0
C[C@H](Nc1cc(-c2cnn(C)c2)cc(Nc2cnccn2)n1)c1ccc(F)cc1 [Ilginatinib hydrochloride] | active: 1 | inactive: 0 | inactive: 0 | inactive: 0 | inactive: 0 | inactive: 0 | inactive: 0 | inactive: 0 | inactive: 0 | active: 1 | – | – | – | – | – | – | – | – | – | –
FC(F)(F)c1ccc(CNc2ccc(Cc3c[nH]c4ncc(Cl)cc34)cn2)cn1 [Pexidartinib] | – | – | – | – | – | – | – | – | – | – | inactive: 0 | inactive: 0 | inactive: 0 | inactive: 0 | inactive: 0 | inactive: 0 | inactive: 0 | inactive: 0 | inactive: 0 | inactive: 0
COc1ccnc(C[S+]([O-])c2nc3cc(-n4cccc4)ccc3[nH]2)c1C (stereo not given) [Ilaprazole (sodium)] | – | – | – | – | – | – | – | – | – | – | inactive: 0 | inactive: 0 | inactive: 0 | inactive: 0 | inactive: 0 | inactive: 0 | inactive: 0 | inactive: 0 | inactive: 0 | inactive: 0
O=C(c1ccc(F)c(F)c1Nc1ccc(I)cc1F)N1CC(O)([C@@H]2CCCCN2)C1 [Cobimetinib (hemifumarate)] | – | – | – | – | – | – | – | – | – | – | inactive: 0 | inactive: 0 | inactive: 0 | inactive: 0 | inactive: 0 | inactive: 0 | inactive: 0 | inactive: 0 | inactive: 0 | inactive: 0
COc1cc2nccc(Oc3ccc(NC(=O)C4(C(=O)Nc5ccc(F)cc5)CC4)cc3)c2cc1OC [Cabozantinib] | inactive: 0 | inactive: 0 | inactive: 0 | inactive: 0 | inactive: 0 | inactive: 0 | inactive: 0 | inactive: 0 | inactive: 0 | inactive: 0 | – | – | – | – | – | – | – | – | – | –

Whole records from above. Order of values: kinase-Nluc reporter destabilization hit call (CDK7; 2.5 µM)	kinase-Nluc reporter destabilization hit call (CDK9; 2.5 µM)	kinase-Nluc reporter destabilization hit call (CHEK2; 2.5 µM)	kinase-Nluc reporter destabilization hit call (CSF1R; 2.5 µM)	kinase-Nluc reporter destabilization hit call (CSK; 2.5 µM)	kinase-Nluc reporter destabilization hit call (CSNK1A1; 2.5 µM)	kinase-Nluc reporter destabilization hit call (CSNK1D; 2.5 µM)	kinase-Nluc reporter destabilization hit call (DDR1; 2.5 µM)	kinase-Nluc reporter destabilization hit call (DYRK1B; 2.5 µM)	kinase-Nluc reporter destabilization hit call (DYRK2; 2.5 µM)	kinase-Nluc reporter destabilization hit call (CDK7; 10 µM)	kinase-Nluc reporter destabilization hit call (CDK9; 10 µM)	kinase-Nluc reporter destabilization hit call (CHEK2; 10 µM)	kinase-Nluc reporter destabilization hit call (CSF1R; 10 µM)	kinase-Nluc reporter destabilization hit call (CSK; 10 µM)	kinase-Nluc reporter destabilization hit call (CSNK1A1; 10 µM)	kinase-Nluc reporter destabilization hit call (CSNK1D; 10 µM)	kinase-Nluc reporter destabilization hit call (DDR1; 10 µM)	kinase-Nluc reporter destabilization hit call (DYRK1B; 10 µM)	kinase-Nluc reporter destabilization hit call (DYRK2; 10 µM)
O=C(c1ccc(F)c(F)c1Nc1ccc(I)cc1F)N1CC(O)([C@@H]2CCCCN2)C1 [Cobimetinib (hemifumarate)] in the list: –	–	–	–	–	–	–	–	–	–	inactive: 0	inactive: 0	inactive: 0	inactive: 0	inactive: 0	inactive: 0	inactive: 0	inactive: 0	inactive: 0	inactive: 0
Nc1cncc(-c2cn3ccnc3c(Nc3ccc(N4CCN(C5COC5)CC4)cc3)n2)n1 [Lanraplenib] in the list: –	–	–	–	–	–	–	–	–	–	inactive: 0	inactive: 0	inactive: 0	inactive: 0	inactive: 0	inactive: 0	inactive: 0	inactive: 0	inactive: 0	inactive: 0
